Experimental data published in US20160208003A1.
No constants are given. Whether binding was seen depends on the method and setting. Some results given as binding are weak or reduced against the parent protein; the word gives no strength.

By UniProt entry, the sequences of proteins in these tests, tags left out.
UniProt P51679: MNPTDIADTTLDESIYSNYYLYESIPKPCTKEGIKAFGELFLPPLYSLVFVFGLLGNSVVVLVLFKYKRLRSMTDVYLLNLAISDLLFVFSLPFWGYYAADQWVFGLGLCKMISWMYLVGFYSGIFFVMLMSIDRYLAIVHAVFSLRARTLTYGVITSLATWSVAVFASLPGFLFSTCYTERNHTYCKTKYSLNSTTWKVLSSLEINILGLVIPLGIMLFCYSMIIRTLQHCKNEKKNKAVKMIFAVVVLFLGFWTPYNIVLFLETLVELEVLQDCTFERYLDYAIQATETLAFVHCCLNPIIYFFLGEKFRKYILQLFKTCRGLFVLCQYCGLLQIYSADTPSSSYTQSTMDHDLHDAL

Tests used:
[1] = biological target: human CC chemokine receptor 4 (CCR4) (human) (UniProt P51679); test: competition flow cytometry on CCRF-CEM cells: unlabelled competitor against ca. 20 nM biotinylated MDC, streptavidin-PE; the text notes that MDC may also bind another receptor on these cells [c]
[2] = biological target: human CC chemokine receptor 4 (CCR4) (human) (UniProt P51679); test: competition flow cytometry: unlabelled competitor against a fixed amount of biotinylated MDC; cell line not named on the sheet or in the legend
[3] = biological target: human CC chemokine receptor 4 (CCR4) (human) (UniProt P51679); test: competition flow cytometry on CCRF-CEM cells: unlabelled competitor against ca. 10 nM biotinylated MDC, streptavidin-PE; the text notes that MDC may also bind another receptor on these cells [b]
[4] = biological target: human CC chemokine receptor 4 (CCR4) (human) (UniProt P51679); test: competition flow cytometry on CCRF-CEM cells: unlabelled competitor against ca. 20 nM biotinylated MDC, streptavidin-PE; the text notes that MDC may also bind another receptor on these cells [d]
[5] = biological target: human CC chemokine receptor 4 (CCR4) (human) (UniProt P51679); test: flow cytometry on CCR4-transfected DT40 cells pre-incubated with 0, 1 or 10 ng/ml MDC, then stained with 0.5 µg/ml scFv (11F, 9E, 17G, 1O, KM3060var) and anti-c-myc antibody
[6] = biological target: human CC chemokine receptor 4 (CCR4) (human) (UniProt P51679); test: competition flow cytometry on CCRF-CEM cells: unlabelled competitor against ca. 20 nM biotinylated TARC, with 1 % BSA, streptavidin-PE [d]
[7] = biological target: human CC chemokine receptor 4 (CCR4) (human) (UniProt P51679); test: competition flow cytometry on CCRF-CEM cells: unlabelled competitor against ca. 20 nM biotinylated TARC, without BSA, streptavidin-PE [c]
[8] = biological target: human CC chemokine receptor 4 (CCR4) (human) (UniProt P51679); test: competition flow cytometry on DT-40-CCR4+ cells: unlabelled competitor against ca. 20 nM biotinylated TARC, with 1 % BSA, streptavidin-PE [b]
[9] = biological target: human CC chemokine receptor 4 (CCR4) (human) (UniProt P51679); test: competition flow cytometry on DT-40-CCR4+ cells: unlabelled competitor against ca. 20 nM biotinylated TARC, without BSA, streptavidin-PE [a]
[10] = biological target: human CC chemokine receptor 4 (CCR4) (human) (UniProt P51679); test: competition flow cytometry on DT-40-CCR4+ cells: unlabelled competitor against ca. 10 nM biotinylated MDC, streptavidin-PE [a]

Measured: binding

B1: macrophage-derived chemokine (MDC) (ligand, UniProt O00626 25-93, looked up)
chain: GPYGANMEDSVCCRDYVRYRLPLRVVKHFYWTSDSCPRPGVVLLTFRDKEICADPRVPWVKMILNKLSQ
binds: [1] | [2] | [3] | [4] | [5] | [6] | [7] | [8] | [9] | [10]
